The results in this text go back to ChEMBL document CHEMBL5120864, “Targeting Enhancer of Zeste Homolog 2 for the Treatment of Hematological Malignancies and Solid Tumors: Candidate Structure-Activity Relationships Insights and Evolution Prospects” (J Med Chem, 2022).

Structures are written as SMILES. ≈ marks a conversion by molar mass, not a printed value.

The series can be described thus: physchem. The note with it: buffer.

For orientation: solubility means how much of the substance goes into solution per volume. The low end stands for little dissolved substance, the high end for much dissolved substance. The compound `CCN(c1cc(-c2ccc(CN3CCOCC3)cc2)cc(C(=O)NCc2c(C)cc(C)[nH]c2=O)c1C)C1CCOCC1` [TAZEMETOSTAT] returned a solubility of 3 µg/mL (≈ 5.24 µM).
